This note sets out measurements from doi:10.1101/2022.09.20.508746.

These are yes or no findings as the source states them, for the method shown. Binding seen in cells or lysates may run through a third protein. Some entries that bind do so weakly or less than the wild type. For some assays here: Sequences can lack the tags named with a protein.

Test [1] deals with T1, WT CDKL5 fused to a C-terminal 3xFLAG (human) (UniProt O76039).
T1 sequence: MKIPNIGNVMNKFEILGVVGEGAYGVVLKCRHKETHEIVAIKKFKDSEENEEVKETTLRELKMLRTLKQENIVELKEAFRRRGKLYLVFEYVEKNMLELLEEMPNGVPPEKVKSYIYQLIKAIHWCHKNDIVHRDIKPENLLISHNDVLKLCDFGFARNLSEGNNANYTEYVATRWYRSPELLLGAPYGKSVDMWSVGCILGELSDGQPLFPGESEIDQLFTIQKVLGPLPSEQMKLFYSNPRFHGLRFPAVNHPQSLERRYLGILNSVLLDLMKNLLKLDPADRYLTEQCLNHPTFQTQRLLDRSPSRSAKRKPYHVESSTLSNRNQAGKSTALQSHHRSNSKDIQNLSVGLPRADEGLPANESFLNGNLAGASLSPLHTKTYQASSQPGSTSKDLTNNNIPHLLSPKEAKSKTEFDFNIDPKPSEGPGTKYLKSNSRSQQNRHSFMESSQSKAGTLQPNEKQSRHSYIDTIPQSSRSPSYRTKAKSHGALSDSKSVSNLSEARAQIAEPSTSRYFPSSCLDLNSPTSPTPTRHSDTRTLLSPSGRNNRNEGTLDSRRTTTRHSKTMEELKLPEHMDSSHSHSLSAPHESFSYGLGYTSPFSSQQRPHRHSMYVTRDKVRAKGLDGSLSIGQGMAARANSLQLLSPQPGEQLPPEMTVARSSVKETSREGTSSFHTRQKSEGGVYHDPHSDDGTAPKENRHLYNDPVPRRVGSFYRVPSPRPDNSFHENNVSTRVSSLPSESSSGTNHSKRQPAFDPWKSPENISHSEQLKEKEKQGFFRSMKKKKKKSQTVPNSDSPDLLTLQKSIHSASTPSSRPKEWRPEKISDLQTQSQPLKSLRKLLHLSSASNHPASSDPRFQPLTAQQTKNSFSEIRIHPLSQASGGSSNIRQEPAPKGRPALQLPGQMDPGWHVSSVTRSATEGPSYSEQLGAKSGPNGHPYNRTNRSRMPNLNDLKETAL
As to the kind of experiment: co-IP.

For test [2], the target named is kinase dead CDKL5 (K42R) fused to a C-terminal 3xFLAG (human) (UniProt O76039). Briefly: co-IP.

For “p62/sequestosome 1 (SQSTM1), endogenous in HeLa cells (from UniProt Q13501 1-440)”, the binding result in test [1] and in test [2] was “binds” throughout.
